# Test results from the supplement of paper PMC6331611.
# ± gives the standard deviation of the averaged measurements. In all, about 1,600 compounds were measured (“normalized growth (OD600, IQM-normalized) in LPM”: median about 1, lowest 2% from about 0.014 on). This is one part of the list.
# System: Salmonella enterica serovar Typhimurium SL1344
# Assay: normalized growth (OD600, IQM-normalized) in LPM (fraction of plate interquartile mean); higher = more bacterial growth (less inhibition)
# Details: LPM pH 5.8; 10 µM; 16 h
row,SMILES,normalized growth
1,Cc1ccccc1OCC(O)CO (stereo not given),0.973 ± 0.059
2,CC(C)(C)C(=O)C(Oc1ccc(Cl)cc1)n1ccnc1 (stereo not given),1.13 ± 0.038
3,CN[C@@H]1[C@@H](O)[C@@H](O[C@@H]2[C@@H](O)[C@H](O[C@H]3OC(CN)=CC[C@H]3N)[C@@H](N)C[C@H]2N)OC[C@]1(C)O,0.947 ± 0.036
4,Cc1cc(NS(=O)(=O)c2ccc(N)cc2)no1,1.01 ± 0.022
5,CC1(C)S[C@@H]2[C@H](NC(=O)[C@H](C(=O)O)c3ccsc3)C(=O)N2[C@H]1C(=O)O,1.01 ± 0.022
6,CC1(O)CCC(C(C)(C)O)CC1 (stereo not given),0.885 ± 0.026
7,CCOC(=O)n1ccn(C)c1=S,0.979 ± 0.083
8,CC(C)OC(=O)CCC/C=C\C[C@@H]1[C@@H](/C=C/[C@@H](O)COc2cccc(C(F)(F)F)c2)[C@H](O)C[C@@H]1O,1.032 ± 0.0058
9,O=C1CN(/N=C/c2ccc(-c3ccc([N+](=O)[O-])cc3)o2)C(=O)N1,1.07 ± 0.017
10,CCC(=O)Oc1ccc2c(c1)CC[C@@H]1[C@@H]2CC[C@]2(C)[C@@H](OC(=O)CC)CC[C@@H]12,0.98 ± 0.093
11,Cc1cc2c(cc1S(N)(=O)=O)S(=O)(=O)CCC2,0.95 ± 0.067
12,CCCCCCc1ccc(O)cc1O.Nc1c2ccccc2nc2ccccc12,1.02 ± 0.021
13,CC1(C)S[C@@H]2[C@H](NC(=O)[C@H](NC(=O)N3CCNC3=O)c3ccccc3)C(=O)N2[C@H]1C(=O)O,1.12 ± 0.048
14,CC(C)c1ccc2oc3nc(N)c(C(=O)O)cc3c(=O)c2c1,0.947 ± 0.05
15,CCCCCCCCCc1ccc(OCCOCCOCCOCCOCCOCCOCCOCCOCCO)cc1,0.936 ± 0.032
16,NC(=O)c1cc[n+](CC2=C(C(=O)O)N3C(=O)[C@@H](NC(=O)[C@@H](c4ccccc4)S(=O)(=O)[O-])[C@H]3SC2)cc1,0.97 ± 0.072
17,COC(=O)Nc1nc2cc(C(=O)c3ccccc3)ccc2[nH]1,0.965 ± 0.036
18,CC(CCc1ccccc1)NCC(O)c1ccc(O)c(C(N)=O)c1 (stereo not given),0.886 ± 0.049
19,CCOC(=O)[C@H](CCc1ccccc1)N[C@@H](C)C(=O)N1Cc2ccccc2C[C@H]1C(=O)O,1.04 ± 0.021
20,Cc1oncc1C(=O)Nc1ccc(C(F)(F)F)cc1,0.942 ± 0.088
21,O=C(O)c1cccnc1Nc1cccc(C(F)(F)F)c1,1.11 ± 0.033
22,C[N+](C)(C)CCCCCC[N+](C)(C)C,0.966 ± 0.044
23,CN(C)/N=N/c1[nH]cnc1C(N)=O,1.15 ± 0.064

# By substructure, the compounds so far with sulfur (6)
row,SMILES,normalized growth
4,Cc1cc(NS(=O)(=O)c2ccc(N)cc2)no1,1.01 ± 0.022
5,CC1(C)S[C@@H]2[C@H](NC(=O)[C@H](C(=O)O)c3ccsc3)C(=O)N2[C@H]1C(=O)O,1.01 ± 0.022
7,CCOC(=O)n1ccn(C)c1=S,0.979 ± 0.083
11,Cc1cc2c(cc1S(N)(=O)=O)S(=O)(=O)CCC2,0.95 ± 0.067
13,CC1(C)S[C@@H]2[C@H](NC(=O)[C@H](NC(=O)N3CCNC3=O)c3ccccc3)C(=O)N2[C@H]1C(=O)O,1.12 ± 0.048
16,NC(=O)c1cc[n+](CC2=C(C(=O)O)N3C(=O)[C@@H](NC(=O)[C@@H](c4ccccc4)S(=O)(=O)[O-])[C@H]3SC2)cc1,0.97 ± 0.072

# Further compounds.

row,SMILES,normalized growth
1,Cc1onc(-c2c(Cl)cccc2Cl)c1C(=O)N[C@@H]1C(=O)N2[C@@H]1SC(C)(C)[C@@H]2C(=O)O,1.02 ± 0.036
2,CN1C(C)(C)CCCC1(C)C,1.08 ± 0.058
3,CC(C)(C(=O)O)c1ccc(C(O)CCCN2CCC(C(O)(c3ccccc3)c3ccccc3)CC2)cc1 (stereo not given),0.993 ± 0.21
4,CN(C)CCCN1c2ccccc2Sc2ccccc21,1.02 ± 0.032
5,NC(Cc1ccc(Cl)cc1)C(=O)O (stereo not given),1.06 ± 0.043
6,Cc1cc(C(C)(C)C)c(O)c(C)c1CC1=NCCN1,1.05 ± 0.024
7,CSc1ccc2c(c1)C(N1CCN(C)CC1)Cc1ccccc1S2 (stereo not given),1.2 ± 0.16
8,CC(C(=O)O)c1ccc2c(c1)Cc1cccnc1O2 (stereo not given),1.18 ± 0.056
9,C[C@H]1COc2c(C3(N)CC3)c(F)cc3c(=O)c(C(=O)O)cn1c23,0.008373 ± 7.5e-05
10,CC(=O)Nc1ccccc1,0.94 ± 0.088
11,COC(=O)C1=C(C)NC(C)=C(C(=O)OCCN2CCN(C(c3ccccc3)c3ccccc3)CC2)C1c1cccc([N+](=O)[O-])c1 (stereo not given),0.958 ± 0.046
12,C[N+]1(C)[C@@H]2CC[C@H]1C[C@@H](OC(=O)C(O)c1ccccc1)C2 (stereo not given in full),0.976 ± 0.081
13,Oc1ncnc2[nH]ncc12,0.945 ± 0.069
14,C[C@]12CCC(=O)C=C1CC[C@@H]1[C@@H]2[C@@H](O)C[C@@]2(C)[C@H]1CC[C@]2(O)C(=O)CO,0.95 ± 0.036
15,CNCCCC1c2ccccc2C=Cc2ccccc21,0.966 ± 0.049
16,CCOC(=O)C1=C[C@@H](OC(CC)CC)[C@H](NC(C)=O)[C@@H](N)C1,1.11 ± 0.058
17,CCCc1cc(=O)[nH]c(=S)[nH]1,1.072 ± 0.0074
18,COc1ccc(CCN(C)CCCC(C#N)(c2ccc(OC)c(OC)c2)C(C)C)cc1OC (stereo not given),0.924 ± 0.036
19,CN(N=O)C(=O)N[C@H]1C(O)O[C@H](CO)[C@@H](O)[C@@H]1O (mixture of isomers),0.929 ± 0.021
20,CO/N=C(\C(=O)N[C@@H]1C(=O)N2C(C(=O)OCOC(=O)C(C)(C)C)=C(/C=C\c3scnc3C)CS[C@H]12)c1csc(N)n1,0.921 ± 0.015
21,O=C(OC[C@H]1O[C@@H](OC(=O)c2cc(O)c(O)c(OC(=O)c3cc(O)c(O)c(O)c3)c2)[C@H](OC(=O)c2cc(O)c(O)c(OC(=O)c3cc(O)c(O)c(O)c3)c2)[C@@H](OC(=O)c2cc(O)c(O)c(OC(=O)c3cc(O)c(O)c(O)c3)c2)[C@@H]1OC(=O)c1cc(O)c(O)c(OC(=O)c2cc(O)c(O)c(O)c2)c1)c1cc(O)c(O)c(OC(=O)c2cc(O)c(O)c(O)c2)c1,1.08 ± 0.013
22,CCCCC(=O)O[C@H]1CC[C@H]2[C@@H]3CCc4cc(O)ccc4[C@H]3CC[C@]12C,1.08 ± 0.17
23,Cc1ccc(Nc2c(F)cccc2Cl)c(CC(=O)O)c1,1.11 ± 0.053

row,SMILES,normalized growth
1,CN1CCc2c(c3ccccc3n2Cc2ccccc2)C1,1.14 ± 0.035
2,Fc1ccc(C(c2ccc(F)cc2)N2CCN(C/C=C/c3ccccc3)CC2)cc1,1.09 ± 0.039
3,Cc1cccc(C(=O)O)c1O,1.09 ± 0.034
4,Cc1ccc2c(Br)cc(Br)c(OC(=O)c3ccccc3)c2n1,0.726 ± 0.064
5,CN[C@@H]1[C@H](O[C@H]2[C@H](O[C@H]3[C@H](O)[C@@H](O)[C@H](N=C(N)N)[C@@H](O)[C@@H]3N=C(N)N)O[C@@H](C)[C@]2(O)C=O)O[C@@H](CO)[C@H](O)[C@H]1O,0.989 ± 0.053
6,CC1(C)S[C@@H]2[C@H](NC(=O)[C@H](N)c3ccc(O)cc3)C(=O)N2[C@H]1C(=O)O,0.945 ± 0.023
7,COc1cccc2c1C(=O)c1c(O)c3c(c(O)c1C2=O)C[C@@](O)(C(=O)CO)C[C@@H]3O[C@H]1C[C@H](N)[C@H](O)[C@H](C)O1,0.988 ± 0.015
8,OCCOCCN1CCN(C2=Nc3ccccc3Sc3ccccc32)CC1,1.09 ± 0.025
9,COc1cc(O)c(C(=O)c2ccccc2)cc1S(=O)(=O)O,1 ± 0.011
10,CCCCCCCCCC(=O)N[C@@H](Cc1c[nH]c2ccccc12)C(=O)N[C@@H](CC(N)=O)C(=O)N[C@@H](CC(=O)O)C(=O)N[C@@H]1C(=O)NCC(=O)N[C@@H](CCCN)C(=O)N[C@@H](CC(=O)O)C(=O)N[C@H](C)C(=O)N[C@@H](CC(=O)O)C(=O)NCC(=O)N[C@H](CO)C(=O)N[C@@H]([C@H](C)CC(=O)O)C(=O)N[C@@H](CC(=O)c2ccccc2N)C(=O)O[C@@H]1C [DAPTOMYCIN (5 millimolar/DMSO)],1.02 ± 0.057
11,N=C(N)NC(=O)Cc1c(Cl)cccc1Cl,1.17 ± 0.04
12,N[C@@H](Cc1cc(I)c(Oc2cc(I)c(O)c(I)c2)c(I)c1)C(=O)O,1.03 ± 0.039
13,C[n+]1cc2c3c(ccc2c2ccc4cc5c(cc4c21)OCO5)OCO3,1.87 ± 0.19
14,Nc1ncnc2c1ncn2[C@@H]1O[C@H](CO)[C@@H](O)[C@H]1O,0.924 ± 0.041
15,Clc1ccc(CSC(Cn2ccnc2)c2ccc(Cl)cc2Cl)cc1 (stereo not given),0.693 ± 0.022
16,CC(=O)O[C@@]12CO[C@@H]1C[C@H](O)[C@@]1(C)C(=O)[C@H](O)C3=C(C)[C@@H](OC(=O)[C@H](O)[C@@H](NC(=O)OC(C)(C)C)c4ccccc4)C[C@@](O)([C@@H](OC(=O)c4ccccc4)[C@H]21)C3(C)C,1.47 ± 0.11
17,C=CC1=C(C)c2cc3[nH]c(cc4nc(cc5[nH]c(cc1n2)c(C)c5CCC(=O)O)C(CCC(=O)O)=C4C)c(C)c3C=C,1.05 ± 0.04
18,CN(C)CCN(Cc1ccccc1)c1ccccn1,0.906 ± 0.035
19,CN1C(=O)CC(c2ccccc2)C1=O (stereo not given),1.04 ± 0.091
20,CCN(CC)C(=O)c1cccc(C)c1,1.03 ± 0.03
21,CCN(CC)C(=O)c1cccnc1,1.14 ± 0.095
22,CCCN(CCC)S(=O)(=O)c1ccc(C(=O)O)cc1,0.918 ± 0.046
23,C[C@]12CC[C@@H]3c4ccc(O)cc4CC[C@H]3[C@@H]1CC[C@@H]2O,1.15 ± 0.065

# Looked up one by one from above:
row,SMILES,normalized growth
2,CN1C(C)(C)CCCC1(C)C,1.08 ± 0.058
20,CCN(CC)C(=O)c1cccc(C)c1,1.03 ± 0.03

# Further compounds:

row,SMILES,normalized growth
1,CN(C)CC/C=C1/c2ccccc2Sc2ccc(Cl)cc21,1.11 ± 0.012
2,CN(C)CCOC(c1ccccc1)c1ccccc1,0.998 ± 0.038
3,COc1ccc2[nH]c([S+]([O-])Cc3ncc(C)c(OC)c3C)nc2n1 (stereo not given),0.792 ± 0.058
4,CC1=C(/C=C/C(C)=C/C=C/C(C)=C/C(=O)O)C(C)(C)CCC1,0.951 ± 0.06
5,NC[C@@H]1CC[C@@H](N)[C@@H](O[C@H]2[C@H](O)[C@@H](O[C@H]3O[C@H](CO)[C@@H](O)[C@H](N)[C@H]3O)[C@H](N)C[C@@H]2N)O1,0.966 ± 0.085
6,N=C(N)NS(=O)(=O)c1ccc(N)cc1,1.02 ± 0.067
7,CC(=O)Oc1ccccc1C(=O)O,0.748 ± 0.067
8,Cc1ncc(CO)c(CO)c1O,1.08 ± 0.056
9,CC1(C)[C@H](C(=O)O)N2C(=O)C[C@H]2S1(=O)=O,1.08 ± 0.038
10,COc1cc2c3cc1Oc1cc(ccc1O)C[C@@H]1c4c(cc(OC)c(O)c4Oc4ccc(cc4)C[C@@H]3N(C)CC2)CC[N+]1(C)C,1.1 ± 0.013
11,COc1cc(C(=O)NCCCCCC(=O)O)cc(OC)c1OC,1.05 ± 0.076
12,N[C@@H](CCC(=O)N[C@@H](CS)C(=O)NCC(=O)O)C(=O)O,1.04 ± 0.057
13,CC1=C(C(=O)O)N2C(=O)[C@@H](NC(=O)[C@H](N)C3=CCC=CC3)[C@H]2SC1,0.985 ± 0.054
14,N[C@@H]1CONC1=O,1 ± 0.038
15,CCCCC(CC)CCC(CC(C)C)OS(=O)(=O)O (stereo not given),0.798 ± 0.03
16,O=C(O)COCCN1CCN(C(c2ccccc2)c2ccc(Cl)cc2)CC1 (stereo not given),1.04 ± 0.034
17,Clc1ccc(CO/N=C(\Cn2ccnc2)c2ccc(Cl)cc2Cl)c(Cl)c1,1.01 ± 0.057
18,CC(=O)O[C@]1(C(C)=O)CC[C@H]2[C@@H]3C=C(Cl)C4=CC(=O)[C@@H]5C[C@@H]5[C@]4(C)[C@H]3CC[C@@]21C,0.991 ± 0.011
19,O=C1c2ccccc2C(=O)C1c1ccc(Cl)cc1,1.09 ± 0.019
20,COc1ccc2cc([C@H](C)CO)ccc2c1,1.15 ± 0.059
21,C#C[C@]1(OC(C)=O)CC[C@H]2[C@@H]3CCC4=CC(=NO)CC[C@@H]4[C@H]3CC[C@@]21CC (mixture of isomers),1.01 ± 0.049
